Measurements from patent publication US20250283871A1, “COMPOSITIONS AND METHODS FOR MODULATING THE INTERACTION BETWEEN SS18-SSX FUSION ONCOPROTEIN AND NUCLEOSOMES” (Dana-Farber Cancer Institute, Inc., priority 2020, published 2025).

System: BAF complex subunits and histone proteins
Experiment: Mass spectrometry proteomics of purified HA-SS18 WT and HA-SS18-SSX1 complexes (Tables 5A-5E)
Parameters: species or system human
[1] = HA-SS18SSX1_NE_peptides: protein co-purified with HA-SS18-SSX1 BAF complexes from soluble nuclear extract (NE), HEK-293T cells
[2] = HA-SS18WT_NE_peptides: proteins co-purified with HA-SS18 WT from nuclear extract (NE), HEK-293T
[3] = HA-SS18WT_NE_peptides: HA-SS18 WT complexes purified from nuclear extract (NE), HEK-293T, label = protein identified (Gene Symbol)

Molecule	Total (peptides) [1]	Unique (peptides) [1]	Total (peptides) [2]	Unique (peptides) [2]	Total (peptides) [3]	Unique (peptides) [3]
RCE1 (protein, UniProt Q9Y256 2-329, looked up) CAAX prenyl protease 2: AALGGDGLRLLSVSRPERPPESAALGGLGPGLCCWVSVFSCLSLACSYVGSLYVWKSELPRDHPAVIKRRFTSVLVVSSLSPLCVLLWRELTGIQPGTSLLTLMGFRLEGIFPAALLPLLLTMILFLGPLMQLSMDCPCDLADGLKVVLAPRSWARCLTDMRWLRNQVIAPLTEELVFRACMLPMLAPCMGLGPAVFTCPLFFGVAHFHHIIEQLRFRQSSVGNIFLSAAFQFSYTAVFGAYTAFLFIRTGHLIGPVLCHSFCNYMGFPAVCAALEHPQRRPLLAGYALGVGLFLLLLQPLTDPKLYGSLPLCVLLERAGDSEAPLCS	1	1				
TAF1C (protein, UniProt Q15572 1-869, looked up) TATA box-binding …: MDFPSSLRPALFLTGPLGLSDVPDLSFMCSWRDALTLPEAQPQNSENGALHVTKDLLWEPATPGPLPMLPPLIDPWDPGLTARDLLFRGGCRYRKRPRVVLDVTEQISRFLLDHGDVAFAPLGKLMLENFKLEGAGSRTKKKTVVSVKKLLQDLGGHQPWGCPWAYLSNRQRRFSILGGPILGTSVASHLAELLHEELVLRWEQLLLDEACTGGALAWVPGRTPQFGQLVYPAGGAQDRLHFQEVVLTPGDNPQFLGKPGRIQLQGPVRQVVTCTVQGESKALIYTFLPHWLTCYLTPGPFHPSSALLAVRSDYHCAVWKFGKQWQPTLLQAMQVEKGATGISLSPHLPGELAICSRSGAVCLWSPEDGLRQIYRDPETLVFRDSSSWRWADFTAHPRVLTVGDRTGVKMLDTQGPPGCGLLLFRLGAEASCQKGERVLLTQYLGHSSPKCLPPTLHLVCTQFSLYLVDERLPLVPMLKWNHGLPSPLLLARLLPPPRPSCVQPLLLGGQGGQLQLLHLAGEGASVPRLAGPPQSLPSRIDSLPAFPLLEPKIQWRLQERLKAPTIGLAAVVPPLPSAPTPGLVLFQLSAAGDVFYQQLRPQVDSSLRRDAGPPGDTQPDCHAPTASWTSQDTAGCSQWLKALLKVPLAPPVWTAPTFTHRQMLGSTELRREEEEGQRLGVLRKAMARGQLLLQRDLGSLPAAEPPPAPESGLEDKLSERLGEAWAGRGAAWWERQQGRTSEPGRQTRRPKRRTQLSSSFSLSGHVDPSEDTSSPHSPEWPPADALPLPPTTPPSQELTPDACAQGVPSEQRQMLRDYMAKLPPQRDTPGCATTPPHSQASSVRATRSQQHTPVLSSSQPLRKKPRMGF	1	1				
SLC30A1 (protein, UniProt Q9Y6M5 1-507, looked up) Proton-coupled zinc …: MGCWGRNRGRLLCMLALTFMFMVLEVVVSRVTSSLAMLSDSFHMLSDVLALVVALVAERFARRTHATQKNTFGWIRAEVMGALVNAIFLTGLCFAILLEAIERFIEPHEMQQPLVVLGVGVAGLLVNVLGLCLFHHHSGFSQDSGHGHSHGGHGHGHGLPKGPRVKSTRPGSSDINVAPGEQGPDQEETNTLVANTSNSNGLKLDPADPENPRSGDTVEVQVNGNLVREPDHMELEEDRAGQLNMRGVFLHVLGDALGSVIVVVNALVFYFSWKGCSEGDFCVNPCFPDPCKAFVEIINSTHASVYEAGPCWVLYLDPTLCVVMVCILLYTTYPLLKESALILLQTVPKQIDIRNLIKELRNVEGVEEVHELHVWQLAGSRIIATAHIKCEDPTSYMEVAKTIKDVFHNHGIHATTIQPEFASVGSKSSVVPCELACRTQCALKQCCGTLPQAPSGKDAEKTPAVSISCLELSNNLEKKPRRTKAENIPAVVIEIKNMPNKQPESSL	1	1				
RFT1 (protein, UniProt Q96AA3 1-541, looked up) Man(5)GlcNAc(2)-PP-dolichol …: MGSQEVLGHAARLASSGLLLQVLFRLITFVLNAFILRFLSKEIVGVVNVRLTLLYSTTLFLAREAFRRACLSGGTQRDWSQTLNLLWLTVPLGVFWSLFLGWIWLQLLEVPDPNVVPHYATGVVLFGLSAVVELLGEPFWVLAQAHMFVKLKVIAESLSVILKSVLTAFLVLWLPHWGLYIFSLAQLFYTTVLVLCYVIYFTKLLGSPESTKLQTLPVSRITDLLPNITRNGAFINWKEAKLTWSFFKQSFLKQILTEGERYVMTFLNVLNFGDQGVYDIVNNLGSLVARLIFQPIEESFYIFFAKVLERGKDATLQKQEDVAVAAAVLESLLKLALLAGLTITVFGFAYSQLALDIYGGTMLSSGSGPVLLRSYCLYVLLLAINGVTECFTFAAMSKEEVDRYNFVMLALSSSFLVLSYLLTRWCGSVGFILANCFNMGIRITQSLCFIHRYYRRSPHRPLAGLHLSPVLLGTFALSGGVTAVSEVFLCCEQGWPARLAHIAVGAFCLGATLGTAFLTETKLIHFLRTQLGVPRRTDKMT	1	1	2	2		
TSPYL1 (protein, UniProt Q9H0U9 1-437, looked up) Testis-specific …: MSGLDGVKRTTPLQTHSIIISDQVPSDQDAHQYLRLRDQSEATQVMAEPGEGGSETVALPPPPPSEEGGVPQDAAGRGGTPQIRVVGGRGHVAIKAGQEEGQPPAEGLAAASVVMAADRSLKKGVQGGEKALEICGAQRSASELTAGAEAEAEEVKTGKCATVSAAVAERESAEVVKEGLAEKEVMEEQMEVEEQPPEGEEIEVAEEDRLEEEAREEEGPWPLHEALRMDPLEAIQLELDTVNAQADRAFQQLEHKFGRMRRHYLERRNYIIQNIPGFWMTAFRNHPQLSAMIRGQDAEMLRYITNLEVKELRHPRTGCKFKFFFRRNPYFRNKLIVKEYEVRSSGRVVSLSTPIIWRRGHEPQSFIRRNQDLICSFFTWFSDHSLPESDKIAEIIKEDLWPNPLQYYLLREGVRRARRRPLREPVEIPRPFGFQSG	1	1				
RAB39B (protein, UniProt Q96DA2 1-213, looked up) Ras-related protein Rab-39B: MEAIWLYQFRLIVIGDSTVGKSCLIRRFTEGRFAQVSDPTVGVDFFSRLVEIEPGKRIKLQIWDTAGQERFRSITRAYYRNSVGGLLLFDITNRRSFQNVHEWLEETKVHVQPYQIVFVLVGHKCDLDTQRQVTRHEAEKLAAAYGMKYIETSARDAINVEKAFTDLTRDIYELVKRGEITIQEGWEGVKSGFVPNVVHSSEEVVKSERRCLC	1	1				
ORC5 (protein, UniProt O43913 1-435, looked up) Origin recognition complex …: MPHLENVVLCRESQVSILQSLFGERHHFSFPSIFIYGHTASGKTYVTQTLLKTLELPHVFVNCVECFTLRLLLEQILNKLNHLSSSEDGCSTEITCETFNDFVRLFKQVTTAENLKDQTVYIVLDKAEYLRDMEANLLPGFLRLQELADRNVTVLFLSEIVWEKFRPNTGCFEPFVLYFPDYSIGNLQKILSHDHPPEYSADFYAAYINILLGVFYTVCRDLKELRHLAVLNFPKYCEPVVKGEASERDTRKLWRNIEPHLKKAMQTVYLREISSSQWEKLQKDDTDPGQLKGLSAHTHVELPYYSKFILIAAYLASYNPARTDKRFFLKHHGKIKKTNFLKKHEKTSNHLLGPKPFPLDRLLAILYSIVDSRVAPTANIFSQITSLVTLQLLTLVGHDDQLDGPKYKCTVSLDFIRAIARTVNFDIIKYLYDFL	1	1			3	3
NR2F2 (protein, UniProt P24468 1-414, looked up) COUP transcription factor 2: MAMVVSTWRDPQDEVPGSQGSQASQAPPVPGPPPGAPHTPQTPGQGGPASTPAQTAAGGQGGPGGPGSDKQQQQQHIECVVCGDKSSGKHYGQFTCEGCKSFFKRSVRRNLSYTCRANRNCPIDQHHRNQCQYCRLKKCLKVGMRREAVQRGRMPPTQPTHGQFALTNGDPLNCHSYLSGYISLLLRAEPYPTSRFGSQCMQPNNIMGIENICELAARMLFSAVEWARNIPFFPDLQITDQVALLRLTWSELFVLNAAQCSMPLHVAPLLAAAGLHASPMSADRVVAFMDHIRIFQEQVEKLKALHVDSAEYSCLKAIVLFTSDACGLSDVAHVESLQEKSQCALEEYVRSQYPNQPTRFGKLLLRLPSLRTVSSSVIEQLFFVRLVGKTPIETLIRDMLLSGSSFNWPYMAIQ	1	1			3	3
DEK (protein, UniProt P35659 2-375, looked up) Protein DEK: SASAPAAEGEGTPTQPASEKEPEMPGPREESEEEEDEDDEEEEEEEKEKSLIVEGKREKKKVERLTMQVSSLQREPFTIAQGKGQKLCEIERIHFFLSKKKTDELRNLHKLLYNRPGTVSSLKKNVGQFSGFPFEKGSVQYKKKEEMLKKFRNAMLKSICEVLDLERSGVNSELVKRILNFLMHPKPSGKPLPKSKKTCSKGSKKERNSSGMARKAKRTKCPEILSDESSSDEDEKKNKEESSDDEDKESEEEPPKKTAKREKPKQKATSKSKKSVKSANVKKADSSTTKKNQNSSKKESESEDSSDDEPLIKKLKKPPTDEELKETIKKLLASANLEEVTMKQICKKVYENYPTYDLTERKDFIKTTVKELIS	1	1				
SYPL1 (protein, UniProt Q16563 1-259, looked up) Synaptophysin-like protein 1: MAPNIYLVRQRISRLGQRMSGFQINLNPLKEPLGFIKVLEWIASIFAFATCGGFKGQTEIQVNCPPAVTENKTVTATFGYPFRLNEASFQPPPGVNICDVNWKDYVLIGDYSSSAQFYVTFAVFVFLYCIAALLLYVGYTSLYLDSRKLPMIDFVVTLVATFLWLVSTSAWAKALTDIKIATGHNIIDELPPCKKKAVLCYFGSVTSMGSLNVSVIFGFLNMILWGGNAWFVYKETSLHSPSNTSAPHSQGGIPPPTGI	1	1	1	1		
PCBP2 (protein, UniProt Q15366 1-365, looked up) Poly(rC)-binding protein 2: MDTGVIEGGLNVTLTIRLLMHGKEVGSIIGKKGESVKKMREESGARINISEGNCPERIITLAGPTNAIFKAFAMIIDKLEEDISSSMTNSTAASRPPVTLRLVVPASQCGSLIGKGGCKIKEIRESTGAQVQVAGDMLPNSTERAITIAGIPQSIIECVKQICVVMLETLSQSPPKGVTIPYRPKPSSSPVIFAGGQDRYSTGSDSASFPHTTPSMCLNPDLEGPPLEAYTIQGQYAIPQPDLTKLHQLAMQQSHFPMTHGNTGFSGIESSSPEVKGYWGLDASAQTTSHELTIPNDLIGCIIGRQGAKINEIRQMSGAQIKIANPVEGSTDRQVTITGSAASISLAQYLINVRLSSETGGMGSS	1	1	1	1		
